Assay results: PubChem BioAssay AID1671190 (National Center for Advancing Translational Sciences (NCATS), 2021)
Among all 580,000 compounds or so, about 6,100 (1.1%) were called active. This list was built around the results that the source calls inconclusive (neither active nor inactive); the mix of calls is not that of the screen. Calls follow the shape of the dose curve; as a rule, active = well fitted inhibition curve with a large enough effect; inconclusive = small, poorly fitted or top-dose-only effect, or another doubt; inactive = no such curve, though single readings can be large or run the other way. Where the call is inconclusive, the potency comes from a doubtful curve fit.

Chains of the proteins cited; added tags and fusions are not shown. Lines headed by an entry give the natural chain unless they say otherwise; changes in a name come on top.
UniProt P18054: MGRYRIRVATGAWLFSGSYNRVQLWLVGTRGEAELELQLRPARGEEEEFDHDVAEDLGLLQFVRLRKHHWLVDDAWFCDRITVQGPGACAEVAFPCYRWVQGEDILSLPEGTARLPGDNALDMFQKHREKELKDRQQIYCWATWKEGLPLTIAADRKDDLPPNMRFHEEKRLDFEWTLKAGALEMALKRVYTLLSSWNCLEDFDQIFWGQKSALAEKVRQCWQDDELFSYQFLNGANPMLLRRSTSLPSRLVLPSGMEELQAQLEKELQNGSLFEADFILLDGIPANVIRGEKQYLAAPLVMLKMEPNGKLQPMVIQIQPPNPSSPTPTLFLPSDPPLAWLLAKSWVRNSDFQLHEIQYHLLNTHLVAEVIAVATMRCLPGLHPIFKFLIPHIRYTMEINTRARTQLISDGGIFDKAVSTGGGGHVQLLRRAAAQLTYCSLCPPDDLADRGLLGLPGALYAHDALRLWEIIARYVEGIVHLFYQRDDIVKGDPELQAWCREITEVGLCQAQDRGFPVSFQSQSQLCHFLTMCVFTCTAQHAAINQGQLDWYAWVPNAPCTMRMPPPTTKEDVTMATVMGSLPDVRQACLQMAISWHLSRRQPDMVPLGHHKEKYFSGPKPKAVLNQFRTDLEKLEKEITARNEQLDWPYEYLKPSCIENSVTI

Target: Polyunsaturated fatty acid lipoxygenase ALOX12 (Homo sapiens) (UniProt P18054)
Assay: Primary qHTS assay for inhibitors of human arachidonate 12S-lipoxygenase (ALOX12): Round 2
Details: purified 12hLO, xylenol orange hydroperoxide absorbance; activity change, negative = inhibition: at 108 µM (top of the series) unless noted
Method in brief: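 Hydroperoxide product was detected by ferrous iron/xylenol orange as the 573 to 405 nm absorbance ratio. Arachidonic acid at 40 uM (final) was turned over for 30 min at room temperature by 150 nM human 12hLO, pH 7.0 Hepes buffer, after 15 min compound preincubation.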
% is scaled to controls: 0 for no effect and ±100 for the full control effect; potency is read from the fitted curve at half-maximal effect.

Row | SMILES | Potency | activity change, negative = inhibition
1 | N[C@@H](Cc1ccccc1)C(=O)N1CCC(C(=O)N[C@@H](CCC(=O)O)C(=O)O)CC1 | inconclusive: 4.47 µM [inhibitor, full curve, poor fit] | 
2 | CONC(=O)CC(c1ccccc1)c1ccccc1 | inconclusive: 79.4 µM [inhibitor, single point] | 
3 | COc1cc(-c2n[nH]c(=S)n2Cc2ccccc2)cc(OC)c1OC | inconclusive: 56.2 µM [inhibitor, partial curve, poor fit] | 
4 | CCc1ccc(CNC(=O)c2cc(SC)ccc2C)s1 |  | inactive: -25.3%
5 | O=C(NC(=S)NNC(=O)c1cccs1)c1ccco1 |  | inactive: 0%
6 | Nc1cc(-c2ccccc2)ccc1O | inconclusive: 50.1 µM [inhibitor, partial curve, poor fit] | 
7 | COc1ccccc1C(=O)NCC(=O)Nc1ccccc1 |  | inactive: 11%
8 | Cc1ccc(CN2C(=O)[C@@H]3C[C@@H](O)CN3C3(CN(C4CCCC4)C3)C2=O)o1 | inconclusive: 44.7 µM [inhibitor, full curve, poor fit] | 
9 | COc1cc(COC(=O)c2cc(OC)c(OC)c(OC)c2)cc(Cl)c1OC(F)F |  | inactive: 7.07%
10 | Oc1cccc(C=NCc2ccccc2)c1O |  | inactive: -35.8%
11 | CCNS(=O)(=O)c1ccc(C(=O)OCC(=O)N2CCCc3ccccc32)cc1 | inconclusive: 63.1 µM [inhibitor, partial curve, poor fit] | 
12 | Cn1cc(CNC(=O)C[C@@H]2C[C@H]3O[C@H](CNC(=O)Nc4cccs4)[C@@H](O)[C@H]3O2)cn1 | inconclusive: 39.8 µM [inhibitor, partial curve] | 
13 | CN(CC(=O)NC(C)(C)C)C(=O)CCl | inconclusive: 31.6 µM [inhibitor, partial curve, poor fit] | 
14 | COc1ccc2cc(CN(C)C(=O)C3CCN(S(=O)(=O)c4cc(F)ccc4F)CC3)ccc2c1 | inconclusive: 28.2 µM [inhibitor, partial curve, poor fit] | 
15 | COc1ccc2c(c1)c1c(c(=O)n(-c3ccccc3C)c(=O)n1CC(=O)Nc1c(C)cccc1C)n2C | inconclusive: 100 µM [inhibitor, partial curve, poor fit] | 
16 | CC(=O)N1CCN(c2ccc(NCc3ccccc3)cc2)CC1 | inconclusive: 31.6 µM [inhibitor, partial curve] | 
17 | COc1ccc(Nc2ccc(C(F)(F)F)cc2[N+](=O)[O-])cn1 | inconclusive: 79.4 µM [inhibitor, partial curve, poor fit] | 
18 | Cc1ccc2nc([C@H]3CCN(Cc4ccccn4)C3)[nH]c2c1 | inconclusive: 31.6 µM [inhibitor, full curve] | 
19 | CN(C)CC1CCCCC1OC(=O)/C=C/c1ccc(Cl)cc1Cl (centres undefined) |  | inactive: -9.58%
20 | c1ccc2c3c([nH]c2c1)C(C1CCCCC1)N(Cc1ncc[nH]1)CC3 (centres undefined) |  | inactive: -7.3%
21 | O=C(O)CNC(=O)Cn1ccc2ccc(OCc3ccccc3)cc21 | inconclusive: 50.1 µM [inhibitor, single point] | 
22 | CCN(c1ccc(NC(=O)CCc2nc3sc4c(c3c(=O)[nH]2)CCCC4)cc1)C(C)C | inconclusive: 11.2 µM [inhibitor, partial curve, poor fit] | 

Row | SMILES | Potency | activity change, negative = inhibition
23 | CC(C)NC(=O)c1nc(-c2ccccc2)c2ccccn12 |  | inactive: 50.9% [at 176 µM]
24 | COc1cccc(C(=O)Nc2cc(Cl)c(O)c(Cl)c2)c1 |  | inactive: -20.2%
25 | Cc1ccc([N+](=O)[O-])c(OCCN2CCc3ccccc3C2)c1 | inconclusive: 0.708 µM [inhibitor, full curve, poor fit] | 
26 | Cc1ccc(-n2c(-c3nn(C)cc3Cl)n[nH]c2=S)cc1 | inconclusive: 100 µM [inhibitor, partial curve, poor fit] | 
27 | O=C(Cn1cnc2sccc2c1=O)N1N=C(c2ccc(Cl)cc2)CC1c1ccco1 (centres undefined) | inconclusive: 22.4 µM [inhibitor, full curve, poor fit] | 
28 | COc1cc(C(=O)Nc2ccc(S(=O)(=O)Nc3onc(C)c3C)cc2)cc(OC)c1OC | inconclusive: 79.4 µM [inhibitor, partial curve, poor fit] | 
29 | CCc1nc(CN(C)C(C(=O)O)c2ccc(C(C)(C)C#N)cc2)no1 (centres undefined) |  | inactive: -5.9%
30 | CC(CCc1ccccc1)NS(=O)(=O)c1ccccc1F (centres undefined) | inconclusive: 89.1 µM [inhibitor, single point] | 
31 | COc1ccc(S(=O)(=O)N2CCC(C(=O)N[C@@H](C)C(=O)NCc3cccc(OC)c3)CC2)cc1 |  | inactive: -0.469%
32 | CC(C)(C)c1ccc(C(=O)N/C(=C\c2ccco2)C(=O)O)cc1 | inconclusive: 44.7 µM [inhibitor, partial curve, poor fit] | 
33 | CCCCn1c(=O)[nH]c(=O)c2c1nc(CSc1nnnn1C1CC1)n2C | inconclusive: 44.7 µM [inhibitor, partial curve, poor fit] | 
34 | N#C/C(=C\c1ccc(F)c(Cl)c1)S(=O)(=O)c1ccccn1 |  | inactive: 0%
35 | CCOC(=O)C1(Cc2ccc(OC)cc2)CCNCC1 |  | inactive: 12.3%
36 | O=C(NC1CCNCC1)c1[nH]ncc1NC(=O)c1c(Cl)cccc1Cl |  | inactive: -36.3% [at 57.4 µM]
37 | Cc1cc(F)ccc1NS(=O)(=O)c1cc(C(=O)O)cc2c1CCC2 | inconclusive: 50.1 µM [inhibitor, single point] | 
38 | O=C1CC(c2ccco2)CC(O)=C1C=Nc1cc(Cl)cc(Cl)c1 (centres undefined) | inconclusive: 8.91 µM [inhibitor, partial curve, poor fit] | 
39 | CN(C)CCCNC(=O)COc1ccc(-c2nn(C)c(=O)c3ccccc23)cc1 |  | inactive: 2.53%
40 | c1ccc(-c2cc(NCCN3CCCCC3)c3ccccc3n2)cc1 | inconclusive: 44.7 µM [inhibitor, partial curve, poor fit] | 
41 | CC(C)CC(NC(=O)CCC(=O)OCC(=O)[C@@]1(O)CCC2[C@@H]3CCC4=CC(=O)C=C[C@]4(C)C3[C@@H](O)C[C@@]21C)C(=O)O (some centres undefined) |  | inactive: 0.634%
42 | CCCCC(NS(=O)(=O)Cc1ccccc1)C(=O)O (centres undefined) | inconclusive: 63.1 µM [inhibitor, partial curve, poor fit] | 
43 | C[C@@]12CCC=C[C@H]1[C@H](c1ccc(/C=C/c3ccccc3)cc1F)N(Cc1ccccc1)C2=O | inconclusive: 31.6 µM [inhibitor, full curve, poor fit] | 
44 | Cc1ccc2occ(-c3cc(-c4ccc(Cl)cc4)nc4c3COc3ccccc3-4)c(=O)c2c1 |  | inactive: -7.08%

Part of the list above in order of length of the SMILES, rising.
Row | SMILES | Potency | activity change, negative = inhibition
6 | Nc1cc(-c2ccccc2)ccc1O | inconclusive: 50.1 µM [inhibitor, partial curve, poor fit] | 
13 | CN(CC(=O)NC(C)(C)C)C(=O)CCl | inconclusive: 31.6 µM [inhibitor, partial curve, poor fit] | 
35 | CCOC(=O)C1(Cc2ccc(OC)cc2)CCNCC1 |  | inactive: 12.3%
42 | CCCCC(NS(=O)(=O)Cc1ccccc1)C(=O)O (centres undefined) | inconclusive: 63.1 µM [inhibitor, partial curve, poor fit] | 
30 | CC(CCc1ccccc1)NS(=O)(=O)c1ccccc1F (centres undefined) | inconclusive: 89.1 µM [inhibitor, single point] | 
16 | CC(=O)N1CCN(c2ccc(NCc3ccccc3)cc2)CC1 | inconclusive: 31.6 µM [inhibitor, partial curve] | 
26 | Cc1ccc(-n2c(-c3nn(C)cc3Cl)n[nH]c2=S)cc1 | inconclusive: 100 µM [inhibitor, partial curve, poor fit] | 
37 | Cc1cc(F)ccc1NS(=O)(=O)c1cc(C(=O)O)cc2c1CCC2 | inconclusive: 50.1 µM [inhibitor, single point] | 
36 | O=C(NC1CCNCC1)c1[nH]ncc1NC(=O)c1c(Cl)cccc1Cl |  | inactive: -36.3% [at 57.4 µM]
20 | c1ccc2c3c([nH]c2c1)C(C1CCCCC1)N(Cc1ncc[nH]1)CC3 (centres undefined) |  | inactive: -7.3%
11 | CCNS(=O)(=O)c1ccc(C(=O)OCC(=O)N2CCCc3ccccc32)cc1 | inconclusive: 63.1 µM [inhibitor, partial curve, poor fit] | 
27 | O=C(Cn1cnc2sccc2c1=O)N1N=C(c2ccc(Cl)cc2)CC1c1ccco1 (centres undefined) | inconclusive: 22.4 µM [inhibitor, full curve, poor fit] | 
28 | COc1cc(C(=O)Nc2ccc(S(=O)(=O)Nc3onc(C)c3C)cc2)cc(OC)c1OC | inconclusive: 79.4 µM [inhibitor, partial curve, poor fit] | 
22 | CCN(c1ccc(NC(=O)CCc2nc3sc4c(c3c(=O)[nH]2)CCCC4)cc1)C(C)C | inconclusive: 11.2 µM [inhibitor, partial curve, poor fit] | 
44 | Cc1ccc2occ(-c3cc(-c4ccc(Cl)cc4)nc4c3COc3ccccc3-4)c(=O)c2c1 |  | inactive: -7.08%
31 | COc1ccc(S(=O)(=O)N2CCC(C(=O)N[C@@H](C)C(=O)NCc3cccc(OC)c3)CC2)cc1 |  | inactive: -0.469%

Next entries follow.

Row | SMILES | Potency | activity change, negative = inhibition
45 | OC[C@@H]1O[C@H](CNC2CCOCC2)[C@H](N2CCN(c3ccccn3)CC2)[C@@H]1O | inconclusive: 15.8 µM [inhibitor, partial curve] | 
46 | CC1=C([N+](=O)[O-])C(c2ccccc2)C2=C(N1)c1ccccc1C2=O (centres undefined) | inconclusive: 44.7 µM [inhibitor, partial curve, poor fit] | 
47 | COc1ccc(Nc2cc3[nH]c(-c4cccc(C(F)(F)F)c4)cc3cn2)cc1OC | inconclusive: 50.1 µM [inhibitor, single point] | 
48 | COc1ccc(CN2CCN(C(=O)Nc3ccc(C)cc3)CC2)c(OC)c1OC |  | inactive: -38%
49 | O=C(CSc1ncnc2ccccc12)Nc1ccc(F)c(F)c1 | inconclusive: 5.62 µM [inhibitor, full curve, poor fit] | 
50 | Cc1ccc(Cl)cc1N1CCN(C(=O)C2CCN(Cc3nc(-c4cccc(Cl)c4)oc3C)CC2)CC1 | inconclusive: 79.4 µM [inhibitor, partial curve, poor fit] | 
51 | Cc1cc(C(=O)NCCC(c2ccccc2)c2ccccc2)c2ccccc2n1 | inconclusive: 79.4 µM [inhibitor, partial curve, poor fit] | 
52 | COc1ccc(C(=O)N[C@@H]2CCC[C@@H]2C(=O)NCc2ccccn2)cc1 |  | inactive: 48.2%
53 | O=C(Nc1ccccc1C(=O)O)c1cc[n+]([O-])cc1 | inconclusive: 12.6 µM [inhibitor, partial curve, poor fit] | 
54 | Cn1c(=O)oc2cc(S(=O)(=O)N3CCCC(C(=O)NCCN4CCOCC4)C3)ccc21 (centres undefined) | inconclusive: 79.4 µM [inhibitor, single point] | 
55 | O=C(NCc1cccs1)c1cc(-c2ccc(Cl)cc2Cl)c2nncn2n1 | inconclusive: 44.7 µM [inhibitor, partial curve, poor fit] | 
56 | Cc1ccc(N2C(=O)c3n[nH]c(C)c3C2c2ccc(O)cc2)cc1 (centres undefined) | inconclusive: 17.8 µM [inhibitor, full curve, poor fit] | 
57 | CN(C)CCC(=O)N1Cc2ccccc2CC2(CCCN(C)C2)C1 (centres undefined) | inconclusive: 3.16 µM [inhibitor, partial curve] | 
58 | CC(NC(=O)c1ccc(N2CCCC2=O)cc1)c1ccccc1Cl (centres undefined) | inconclusive: 89.1 µM [inhibitor, partial curve, poor fit] | 
59 | O=C(CN1C(=O)NC2(CCCCC2)C1=O)Nc1cccc(Br)c1 | inconclusive: 15.8 µM [inhibitor, full curve, poor fit] | 
60 | CCOC(=O)Nc1ccc2c(c1)C(=NNC(=S)NC)c1ccccc1-2 | active: 39.8 µM | 
61 | O=C(O)Cc1ccc(C(=O)c2ccc(Cl)cc2)s1 | inconclusive: 35.5 µM [inhibitor, single point] | 
62 | COc1ccc(Cc2c(-c3ccc(C#N)cc3)nc3c(Cl)cc(C(F)(F)F)cn23)c(C)c1 | inconclusive: 28.2 µM [inhibitor, partial curve, poor fit] | 
63 | CN(C)c1cccc(NC(=O)Cc2c[nH]c3ncc(-c4cnn(C)c4)cc23)c1 | inconclusive: 126 µM [inhibitor, single point] | 
64 | CCOC(=O)Cn1c(=O)n(-c2ccccc2OC)c2nc(-c3ccccc3C)nc(C(N)=O)c21 | inconclusive: 1.26 µM [inhibitor, full curve, poor fit] | 
